Laboratory results published in patent publication US20210401708A1, “Skin Anti-Aging Composition Containing Irilin B” (PHYTO CORPORATION INC., priority 2018, published 2021).

Test system: Human skin keratinocytes
Assay: Keratinocyte differentiation promoting effect
Assay type: cell-based
Experimental: Human skin keratinocytes (Korean Cell Line Bank) were seeded in the CO2 incubation flask in which DMEM containing 10% FBS was placed. After the cells were grown to a confluency of about 80%, Irilin B at different concentrations (5, 10, 20, 50, 100 μg/ml) were added to the cells, followed by incubation for 3 days. Thereafter, the cells were treated with a reduction modifier, such as sodium dodecyl sulfate (SDS) and β-mercaptoethanol, to remove proteins. After the treatment, the remaining keratinocyte layer was suspended in distilled water, and then the absorbance was measured at 310 nm to analyze the peptide concentration. The increase by each sample was compared on the basis of the negative control, distilled water (0%). In the positive control, the cells were treated with 10 nM TGF-β known as a cell differentiation factor. All the tests of keratinocyte differentiation promoting effect were repeatedly carried out three times. The absorbance at 310 nm is expressed as a mean and standard deviation, and the cell differentiation promoting effect is expressed, using the following calculation formula, as an average value (%), in Table 4.
Cell differentiation promoting effect (%)=(absorbance value at 310 nm in test sample−absorbance value at 310 nm in negative control)×100 [Calculation Formula]

Compound	Absorbance (310 nm) (10 nM)	Absorbance (310 nm) (10 μg/ml, 3 days)	Absorbance (310 nm) (20 μg/ml, 3 days)	Absorbance (310 nm) (50 μg/ml, 3 days)	Absorbance (310 nm) (100 μg/ml, 3 days)
transforming growth factor-β (TGF-β)	2.004 ± 0.03				
COc1c(O)cc2occ(-c3ccccc3O)c(=O)c2c1O [Irilin B, 5,7,2′-trihydroxy-6-methoxyisoflavone]		0.839 ± 0.05	1.024 ± 0.06	1.510 ± 0.04	1.981 ± 0.08
